Data taken from the supplement of paper PMC8728848.
Some of the results follow.

Experiments:
Experiment in all cases: glycan array binding signal (z-score within array); higher = stronger binding
Conditions in all cases: glycan notation: IUPAC condensed, linker removed
[1] = molecular target: Fuc(a1-2)Gal(b1-4)GlcNAc(b1-2)[Fuc(a1-2)Gal(b1-4)GlcNAc(b1-4)]Man(a1-3)[Fuc(a1-2)Gal(b1-4)GlcNAc(b1-2)Man(a1-6)]Man(b1-4)GlcNAc(b1-4)GlcNAc
Summary of the method: (§1)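 The binding signal is a Z-score computed within each array. Data were drawn from 3228 arrays in the Consortium for Functional Glycomics database, restricted to those with a known protein sequence. Scores were averaged over arrays of the same protein sequence at different concentrations or buffers, and over linkers, and negative values can be taken as non-binding.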

[2] = molecular target: Fuc(a1-2)Gal(b1-4)GlcNAc(b1-3)Gal(b1-4)GlcNAc
Summary of the method: as §1

[3] = molecular target: Fuc(a1-2)Gal(b1-4)GlcNAc(b1-3)Gal(b1-4)GlcNAc(b1-2)Man(a1-3)[Fuc(a1-2)Gal(b1-4)GlcNAc(b1-3)Gal(b1-4)GlcNAc(b1-2)Man(a1-6)]Man(b1-4)GlcNAc(b1-4)GlcNAc
Summary of the method: as §1

[4] = molecular target: Fuc(a1-2)Gal(b1-4)GlcNAc(b1-3)Gal(b1-4)GlcNAc(b1-3)Gal(b1-4)GlcNAc
Summary of the method: as §1

[5] = molecular target: Fuc(a1-2)Gal(b1-4)GlcNAc(b1-3)GalNAc
Summary of the method: as §1

[6] = molecular target: Fuc(a1-2)Gal(b1-4)GlcNAc(b1-3)[Fuc(a1-2)Gal(b1-4)GlcNAc(b1-6)]GalNAc
Summary of the method: as §1

[7] = molecular target: Fuc(a1-2)Gal(b1-4)GlcNAc(b1-3)[Fuc(a1-3)[Gal(b1-4)]GlcNAc(b1-6)]Gal(b1-4)Glc
Summary of the method: as §1

[8] = molecular target: Fuc(a1-2)Gal(b1-4)GlcNAc(b1-6)GalNAc
Summary of the method: as §1

[9] = molecular target: Fuc(a1-2)Gal(b1-4)GlcNAc6S
Summary of the method: as §1

[10] = molecular target: Fuc(a1-2)Gal(b1-4)[Fuc(a1-3)]GlcNAc
Summary of the method: as §1

[11] = molecular target: Fuc(a1-2)Gal(b1-4)[Fuc(a1-3)]GlcNAc(b1-2)Man(a1-3)[Fuc(a1-2)Gal(b1-4)[Fuc(a1-3)]GlcNAc(b1-2)Man(a1-6)]Man(b1-4)GlcNAc(b1-4)GlcNAc
Summary of the method: as §1

[12] = molecular target: Fuc(a1-2)Gal(b1-4)[Fuc(a1-3)]GlcNAc(b1-2)Man(a1-3)[Fuc(a1-2)Gal(b1-4)[Fuc(a1-3)]GlcNAc(b1-2)Man(a1-6)]Man(b1-4)GlcNAc(b1-4)[Fuc(a1-6)]GlcNAc
Summary of the method: as §1

[13] = molecular target: Fuc(a1-2)Gal(b1-4)[Fuc(a1-3)]GlcNAc(b1-2)[Fuc(a1-2)Gal(b1-4)[Fuc(a1-3)]GlcNAc(b1-4)]Man(a1-3)[Fuc(a1-2)Gal(b1-4)[Fuc(a1-3)]GlcNAc(b1-2)Man(a1-6)]Man(b1-4)GlcNAc(b1-4)GlcNAc
Summary of the method: as §1

[14] = molecular target: Fuc(a1-2)Gal(b1-4)[Fuc(a1-3)]GlcNAc(b1-3)Gal(b1-4)[Fuc(a1-3)]GlcNAc
Summary of the method: as §1

[15] = molecular target: Fuc(a1-2)Gal(b1-4)[Fuc(a1-3)]GlcNAc(b1-3)Gal(b1-4)[Fuc(a1-3)]GlcNAc(b1-3)Gal(b1-4)[Fuc(a1-3)]GlcNAc
Summary of the method: as §1

[16] = molecular target: Fuc(a1-2)Gal(b1-4)[Fuc(a1-3)]GlcNAc(b1-3)GalNAc
Summary of the method: as §1

[17] = molecular target: Fuc(a1-2)Gal(b1-4)[Fuc(a1-3)]GlcNAc(b1-3)[Neu5Ac(a2-6)Gal(b1-4)GlcNAc(b1-6)]Gal(b1-4)Glc
Summary of the method: as §1

[18] = molecular target: Fuc(a1-2)Gal3S(b1-4)GlcNAc
Summary of the method: as §1

[19] = molecular target: Fuc(a1-2)Gal6S(b1-3)GlcNAc
Summary of the method: as §1

[20] = molecular target: Fuc(a1-2)Gal6S(b1-3)GlcNAc6S
Summary of the method: as §1

[21] = molecular target: Fuc(a1-2)Gal6S(b1-4)Glc
Summary of the method: as §1

[22] = molecular target: Fuc(a1-2)Gal6S(b1-4)Glc6S
Summary of the method: as §1

[23] = molecular target: Fuc(a1-2)Gal6S(b1-4)GlcNAc
Summary of the method: as §1

[24] = molecular target: Fuc(a1-2)[Gal(a1-3)]Gal
Summary of the method: as §1

[25] = molecular target: Fuc(a1-2)[Gal(a1-3)]Gal(b1-3)GalNAc
Summary of the method: as §1

[26] = molecular target: Fuc(a1-2)[Gal(a1-3)]Gal(b1-3)GalNAc(b1-3)Gal(a1-4)Gal(b1-4)Glc
Summary of the method: as §1

[27] = molecular target: Fuc(a1-2)[Gal(a1-3)]Gal(b1-3)GlcNAc
Summary of the method: as §1

[28] = molecular target: Fuc(a1-2)[Gal(a1-3)]Gal(b1-3)GlcNAc(b1-2)Man(a1-3)[Fuc(a1-2)[Gal(a1-3)]Gal(b1-3)GlcNAc(b1-2)Man(a1-6)]Man(b1-4)GlcNAc(b1-4)GlcNAc
Summary of the method: as §1

[29] = molecular target: Fuc(a1-2)[Gal(a1-3)]Gal(b1-3)GlcNAc(b1-2)Man(a1-3)[Fuc(a1-2)[Gal(a1-3)]Gal(b1-3)GlcNAc(b1-2)Man(a1-6)]Man(b1-4)GlcNAc(b1-4)[Fuc(a1-6)]GlcNAc
Summary of the method: as §1

[30] = molecular target: Fuc(a1-2)[Gal(a1-3)]Gal(b1-3)GlcNAc(b1-3)GalNAc
Summary of the method: as §1

B1: GST-Gap1 (Streptococcus parasanguinis), A1C3L5 (protein)
chain: MFYFVPSWYNGQRQWYYDTPWWFRVKNRMTFDDSVNQVKMFLQGQEEIGLMILNYQPQLRYFLHKQNIFGIYYWSFFDDIQNITRSYTKIIHLKDLNWPEGCEFLYSPFAVVVRLKGEIFAIVNYAEDGNLHSVSFQKNGKVTKDYIFDDRGFLSSILYYDIDERPLYQDYLNINGVWQVREFLKKENDPTPILMINDFSDQTFSKKYYNGWEELIKERLAIFQNNHVENEDVFVLASDTQHNQLVSSIFKEHRKIYSFFGNRFNLENLGQDRISINDATFLVVDTEKNEELLRKTCENLVFKSIPIVRLSPFDSRLRLGHSQTVKEQIIYFHIDNIELDELYSVIAIILELMTLHLDIELRIVTFRQDFQLDLLKTWIIDFIKTNHFEDLLFKQISEGENEIEDEGEIELSRIAMECFTNENQIIKCLDTARLVIDLGIEPDLYTQIASISAGIPQINRVSSDYVIHQKNGLVISDISKLSSAIEFYFDGLFNWNEALIYAVRKMSDYTSGKILKQWKGMLKKK
For B1, the “glycan array binding signal (z-score)” value [1] was 0.027, the “glycan array binding signal (z-score)” value [2] was -0.608 and the “glycan array binding signal (z-score)” value [3] was 0.781. The “glycan array binding signal (z-score)” value [4] was -0.355, the “glycan array binding signal (z-score)” value [5] was -0.128 and the “glycan array binding signal (z-score)” value [6] was -0.255. The “glycan array binding signal (z-score)” value [7] was 0.835, the “glycan array binding signal (z-score)” value [8] was 0.536 and the “glycan array binding signal (z-score)” value [9] was -1.12. The “glycan array binding signal (z-score)” value [10] was -0.297, the “glycan array binding signal (z-score)” value [11] was -0.502 and the “glycan array binding signal (z-score)” value [12] was -0.571. For the same binder, the “glycan array binding signal (z-score)” value [13] was 0.849, the “glycan array binding signal (z-score)” value [14] was -0.143 and the “glycan array binding signal (z-score)” value [15] was 0.237. For the same binder, the “glycan array binding signal (z-score)” value [16] was 1.32, the “glycan array binding signal (z-score)” value [17] was -1.17 and the “glycan array binding signal (z-score)” value [18] was -2.1. For the same binder, the “glycan array binding signal (z-score)” value [19] was -2.38, the “glycan array binding signal (z-score)” value [20] was 0.23 and the “glycan array binding signal (z-score)” value [21] was -0.647. The “glycan array binding signal (z-score)” value [22] was -0.485, the “glycan array binding signal (z-score)” value [23] was 0.071 and the “glycan array binding signal (z-score)” value [24] was 0.075. For the same binder, the “glycan array binding signal (z-score)” value [25] was 0.925, the “glycan array binding signal (z-score)” value [26] was -0.517 and the “glycan array binding signal (z-score)” value [27] was 0.152. The “glycan array binding signal (z-score)” value [28] was 0.483, the “glycan array binding signal (z-score)” value [29] was 0.533 and the “glycan array binding signal (z-score)” value [30] was -0.222.
